In patent EP4410284A1, “COMPOUND AND METHOD FOR THE TREATMENT OF ZELLWEGER SPECTRUM DISORDER” (Apteeus, priority 2023, dated 2024) one finds EC50 data, which are given here for one molecule.

In the assay the test system is GM16513 cells. Put plainly: Catalase import immunofluorescence, high-content screening (% importing cells). To be noted: Homo sapiens, 72 h, dose response with 6 concentrations, 3 days. The class given is cell-based.

As a reminder, the EC50 is the midpoint of the concentration-response curve. A high value points to lower potency in that assay. Molecule `O=C(CCCCCCC(=O)Nc1ccccc1)NO` [Vorinostat] yielded an EC50 of 1.09 µM.
